Data reported in paper PMC4479014.

Chains of the proteins cited; added tags and fusions are not shown.
UniProt P56959: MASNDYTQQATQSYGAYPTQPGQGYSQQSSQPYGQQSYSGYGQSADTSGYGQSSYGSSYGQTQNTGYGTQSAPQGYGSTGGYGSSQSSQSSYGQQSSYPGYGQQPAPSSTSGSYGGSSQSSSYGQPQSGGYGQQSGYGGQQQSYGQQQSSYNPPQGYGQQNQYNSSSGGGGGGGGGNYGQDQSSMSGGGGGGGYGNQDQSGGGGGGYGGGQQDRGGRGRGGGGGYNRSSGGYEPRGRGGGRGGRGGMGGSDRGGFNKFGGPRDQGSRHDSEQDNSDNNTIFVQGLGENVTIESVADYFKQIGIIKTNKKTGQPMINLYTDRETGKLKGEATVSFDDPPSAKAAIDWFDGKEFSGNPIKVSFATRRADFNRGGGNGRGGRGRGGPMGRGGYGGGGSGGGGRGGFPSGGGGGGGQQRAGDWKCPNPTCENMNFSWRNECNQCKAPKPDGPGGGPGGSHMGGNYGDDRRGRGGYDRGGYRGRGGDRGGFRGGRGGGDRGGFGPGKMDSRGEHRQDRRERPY

Biological target: FUS (in neuroblastoma cells) (UniProt P56959)
Assay: affinity purification with mass spectrometry; IP of FUS in neuroblastoma cells, associated proteins identified by mass spectrometry (Supplementary Table 1)

binding: binds
B1: poly (A)-specific ribonuclease PAN2 (in neuroblastoma cells) (protein, UniProt Q8BGF7 1-1200)
chain: MNFEGLDPGLAEFSPAMHSTLDPVLDAHLNPSLLQNVELDPEGVALEALPVQESVHIMEGVYSELHSVVAEVGVPVSVSHFDLHEEMLWVGSHGGHATSFFGPALERYSSFQVNGGDDIRQIQSLENGILFLTKNNLKYMARGGLIIFDYLLDENEDMHSVLLTDNSTLLVGGLQNHVLEIDLNTVQETQKYAVETPGVTIMRQTNRFFFCGHTSGKVSLRDLRSFKVEHEFDAFSGSLSDFDVHGNLLAACGFSSRLTGLACDRFLKVYDLRMMRAITPLQVHVDPAFLRFIPTYTSRLAIISQSGQCQFCEPTGLANPADIFHVNPVGPLLMTFDVSASKQALAFGDSEGCVHLWTDSPEPSFNPYSRETEFALPCLVDSLPPLDWSQDLLPLSLIPVPLTTDALLSDWPAANSAPAPRRAPPVDAEILRTMKKVGFIGYAPNPRTRLRNQIPYRLKESDHEFDNFSQVTESPTGREEEPLHTVSKKYRKVTIKYSKLGLEDFDFKHYNKTLFAGLEPHIPNAYCNCMIQVLYFLEPVRCLIQNHLCQKEFCLACELGFLFHMLDLSRGDPCQGSNFLRAFRTIPEASALGLILADSDEASGKGSLARLIQRWNRFILTQLHQDMQELEVPQAYRGAGGSFCSSGDSIIGQLFSCEMENCSLCRCGSETVRASSTLLFTLSYPEDKTGKNYDFAQVLKRSICLEQNTQAWCDNCEKYQPTIQTRNIRHLPDILVINCEVNSSKEADFWRLQAEVAFKIAVKKYGGEMKSKEFALADRKELRSPEGFLCSSIEELKNVWLPFSIRMKMTKNKGLDVCNWADEHELSSLGAPSQWGPARAEEELGVYVYDLMATVVHILDSRTGGSLVAHIKVGETYHQRKEGVTHQQWYLFNDFLIEPIDKYEAVQFDMNWKVPAILYYVKRNLNSRYNLNIKNPIEASVLLAEASLARKQRKTHTTFIPLMLNEMPQVGDLVGLDAEFVTLNEEEAELRSDGTKSTIKPSQMSVARITCVRGQGPNEGIPFIDDYISTQEQVVDYLTQYSGIKPGDLDAKISSKHLTTLKSTYLKLRFLIDIGVKFVGHGLQKDFRVINLMVPKDQVLDTVYLFHMPRKRMISLRFLAWYFLDLKIQGETHDSIEDARTALQLYRKYLELSKNGTEPESFHKVLKGLYEKGRKMDWKVPEPESQTSPKNAAVFSVLAL

binding: binds
B2: cleavage and polyadenylation-specific factor CPSF6 (in neuroblastoma cells) (protein, UniProt Q6NVF9 1-551)
chain: MADGVDHIDIYADVGEEFNQEAEYGGHDQIDLYDDVISPSANNGDAPEDRDYMDTLPPTVGDDVGKGAAPNVVYTYTGKRIALYIGNLTWWTTDEDLTEAVHSLGVNDILEIKFFENRANGQSKGFALVGVGSEASSKKLMDLLPKRELHGQSPVVTPCNKQFLSQFEMQSRKTTQSGQMSGEGKAGPPGGGSRAAFPQGGRGRGRFPGAVPGGDRFPGPAGPGGPPPPFPAGQTPPRPPLGPPGPPGPPGPPPPGQVLPPPLAGPPNRGDRPPPPVLFPGQPFGQPPLGPLPPGPPPPVPGYGPPPGPPPPQQGPPPPPGPFPPRPPGPLGPPLTLAPPPHLPGPPPGAPPPAPHVNPAFFPPPTNSGMPTSDSRGPPPTDPYGRPPPYDRGDYGPPGREMDTARTPLSEAEFEEIMNRNRAISSSAISRAVSDASAGDYGSAIETLVTAISLIKQSKVSADDRCKVLISSLQDCLHGIESKSYGSGSRRERSRERDHSRSREKSRRHKSRSRDRHDDYYRERSRERERHRDRDRDRDRERDREREYRHR

These are yes or no findings as the source states them, for the method shown. Binding seen in cells or lysates may run through a third protein. These calls come from enrichment with a bait or labelling near it, and not all partners need be listed. Each block holds one binder with its values, some of them ahead of it.
